{
  "sequences": {"note": "Amino acid sequences for entries named in this document (tags omitted).", "UniProt Q14191, whole entry, looked up": "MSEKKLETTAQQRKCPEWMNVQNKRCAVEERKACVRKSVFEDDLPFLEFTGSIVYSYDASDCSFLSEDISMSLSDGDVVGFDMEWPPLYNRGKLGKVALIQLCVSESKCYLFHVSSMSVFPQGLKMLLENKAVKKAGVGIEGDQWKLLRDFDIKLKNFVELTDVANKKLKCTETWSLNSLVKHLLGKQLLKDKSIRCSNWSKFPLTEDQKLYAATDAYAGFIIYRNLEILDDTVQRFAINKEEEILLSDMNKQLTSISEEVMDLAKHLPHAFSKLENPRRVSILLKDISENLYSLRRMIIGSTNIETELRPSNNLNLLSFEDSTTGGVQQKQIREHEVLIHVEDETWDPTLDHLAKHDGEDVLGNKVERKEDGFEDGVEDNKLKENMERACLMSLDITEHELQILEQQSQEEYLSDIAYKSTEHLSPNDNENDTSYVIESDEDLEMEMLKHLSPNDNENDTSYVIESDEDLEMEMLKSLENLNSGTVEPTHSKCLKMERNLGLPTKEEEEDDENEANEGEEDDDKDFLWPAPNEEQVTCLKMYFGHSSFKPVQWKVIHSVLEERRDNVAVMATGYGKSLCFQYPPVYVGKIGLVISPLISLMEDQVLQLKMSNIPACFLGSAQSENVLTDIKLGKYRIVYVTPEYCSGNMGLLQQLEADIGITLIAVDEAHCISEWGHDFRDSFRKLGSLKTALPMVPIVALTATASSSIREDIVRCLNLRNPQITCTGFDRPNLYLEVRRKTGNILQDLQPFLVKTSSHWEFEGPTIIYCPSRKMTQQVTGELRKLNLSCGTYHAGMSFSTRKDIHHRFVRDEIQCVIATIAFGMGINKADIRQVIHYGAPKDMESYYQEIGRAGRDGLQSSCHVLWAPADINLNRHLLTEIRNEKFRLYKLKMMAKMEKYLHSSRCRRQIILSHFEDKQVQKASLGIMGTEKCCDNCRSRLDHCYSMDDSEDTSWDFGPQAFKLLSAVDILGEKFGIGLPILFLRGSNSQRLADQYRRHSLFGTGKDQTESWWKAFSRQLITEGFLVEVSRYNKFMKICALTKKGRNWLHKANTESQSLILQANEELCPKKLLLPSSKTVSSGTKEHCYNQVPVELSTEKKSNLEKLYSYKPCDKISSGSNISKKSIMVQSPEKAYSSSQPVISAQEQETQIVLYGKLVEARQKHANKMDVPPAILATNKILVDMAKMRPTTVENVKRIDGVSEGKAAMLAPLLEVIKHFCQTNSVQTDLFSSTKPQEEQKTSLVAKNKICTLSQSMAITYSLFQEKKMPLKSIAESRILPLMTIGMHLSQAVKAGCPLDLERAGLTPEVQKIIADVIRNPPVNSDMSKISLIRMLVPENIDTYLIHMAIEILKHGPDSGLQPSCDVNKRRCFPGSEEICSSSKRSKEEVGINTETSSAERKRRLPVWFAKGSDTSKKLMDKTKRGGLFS"},
  "source": "PubChem BioAssay AID651768",
  "about": "(National Center for Advancing Translational Sciences (NCATS), 2012)",
  "note": "Out of some 360,000 compounds screened, about 1,700 (0.47%) were called active. Inconclusive means that the source gave no clear call. Such entries were picked first, then a sample of the others. The call rests on the fitted dose curve; in most records, active means well fitted inhibition curve with a large enough effect; inconclusive means small, poorly fitted or top-dose-only effect; inactive means no such curve, though single readings can be large or run the other way. A potency beside an inconclusive call is a rough fit, not a confirmed value. On the % scale 0 is the no-effect control and ±100 the full control effect; potency means the concentration at half of the fitted maximal effect.",
  "data": [
    {"target": "Bifunctional 3'-5' exonuclease/ATP-dependent helicase WRN (Homo sapiens) (UniProt Q14191)", "assay": "qHTS for Inhibitors of WRN Helicase; further: nearly all actives have a fitted effect of over 55% in size", "settings": "WRN helicase unwinding, fluorescent forked duplex, kinetic; activity change, negative = inhibition: at 114 µM (top of the series) unless noted", "summary_of_the_method": "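Primary qHTS, 1536-well format. 20 nM WRN + compound, 15 min RT; start with 100 nM forked fluorophore/quencher duplex, 2 mM ATP (final); kinetic read ex 525/em 598 nm.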", "values": [
      {"compound": "CCN(CCCNC(=O)CNC(=O)c1nn(-c2ccc(OC)cc2)c(=O)c2ccccc12)c1cccc(C)c1", "Potency": "inactive"},
      {"compound": "Cc1c2cnn(CC(=O)Nc3c(F)c(F)cc(F)c3F)c(=O)c2c(C)n1Cc1ccccc1F", "Potency": "inconclusive: 44.7 µM [inhibitor, partial curve]"},
      {"compound": "COc1ccc(NS(=O)(=O)c2ccc3nc(COc4ccc5ccccc5c4)[nH]c3c2)cc1", "Potency": "inconclusive: 31.6 µM [inhibitor, single point]"},
      {"compound": "O=C(NCCN1CCN(C(=O)c2ccc(F)cc2)CC1)C(=O)NCc1ccccc1", "Potency": "inactive"},
      {"compound": "N=C1/C(=C\\c2ccc(SCc3ccccc3)o2)C(=O)N=C2SC(CC(=O)N3CCOCC3)=NN12", "Potency": "inactive"},
      {"compound": "Cc1ccc(C)c(S(=O)(=O)Nc2ccc(C(=O)NCC(c3ccco3)N3CCCCC3)cc2)c1", "note": "(stereo unspecified)", "Potency": "inconclusive: 79.4 µM [inhibitor, single point]"},
      {"compound": "O=C(c1nc2ccc(Cl)cn2c1CN1CCC(CO)CC1)N1CCc2ccccc2C1", "Potency": "inactive"},
      {"compound": "CC(=O)Nc1ccc([N+](=O)[O-])c(CS(=O)(=O)c2ccc(C)cc2)c1[N+](=O)[O-]", "Potency": "inconclusive: 89.1 µM [inhibitor, single point]"},
      {"compound": "O=C(O)/C=C/c1nc(-c2ccccc2)n2ccccc12", "Potency": "inconclusive: 79.4 µM [inhibitor, partial curve]"},
      {"compound": "CCN(CC)c1ccc(SS(=O)(=O)O)cc1", "activity change, negative = inhibition": "inconclusive: -49.4% [inhibitor] [at 57.1 µM]"},
      {"compound": "COc1ccc(NC(=O)c2ccc(NC(=O)CSc3nccc(=O)[nH]3)cc2)cc1", "Potency": "inconclusive: 70.8 µM [inhibitor, partial curve]"},
      {"compound": "NC(=O)c1ccc(NC(=O)COC(=O)/C=C/c2ccc(Br)o2)cc1", "Potency": "active: 31.6 µM"},
      {"compound": "C=C1[C@@H](O)[C@H](CC(C)C)N(Cc2ccccc2Br)S1(=O)=O", "Potency": "inactive"},
      {"compound": "O=C(O)CCN1C(=O)/C(=C\\c2ccncc2)SC1=S", "Potency": "inactive"},
      {"compound": "O=C(OCn1ncc(Br)c(Br)c1=O)c1ccc(F)cc1", "Potency": "inconclusive: 28.2 µM [inhibitor, partial curve]"},
      {"compound": "O=C(C#Cc1ccccc1)c1ccccc1", "Potency": "active: 44.7 µM"},
      {"compound": "O=C(O)CCN1CCc2ccccc21", "Potency": "inactive"},
      {"compound": "COc1ccc(C)cc1NC(=O)CNC(=O)c1sc2ccccc2c1Cl", "Potency": "inconclusive: 89.1 µM [inhibitor, single point]"},
      {"compound": "CC(=O)[C@]1(O)Cc2c(O)c3c(c(O)c2[C@@H](O[C@H]2C[C@H](N)[C@H](O)[C@H](C)O2)C1)C(=O)c1ccccc1C3=O", "Potency": "active: 31.6 µM"},
      {"compound": "Cc1ccc(N2CCN(C(=S)c3ccc(-c4cccc([N+](=O)[O-])c4)o3)CC2)cc1", "Potency": "inactive"},
      {"compound": "Cc1cccc(NC(=O)CN2CCN(C(=O)C3CCC3)CC2)c1C", "Potency": "inconclusive: 22.4 µM [inhibitor, full curve]"},
      {"compound": "N#Cc1c(-c2ccco2)cc(-c2ccc(F)cc2)nc1N", "Potency": "inconclusive: 39.8 µM [inhibitor, full curve, poor fit]"},
      {"compound": "Cc1cc[n+](-c2[nH]c(=O)sc2/C=N/N=C(\\[O-])c2ccccc2)cc1", "Potency": "inconclusive: 70.8 µM [inhibitor, single point]"},
      {"compound": "O=[N+]([O-])c1ccc(Cl)c(-c2ccc(/C=N/n3cnnc3)o2)c1", "Potency": "inconclusive: 56.2 µM [inhibitor, partial curve]"},
      {"compound": "Cc1cc(C(=O)CCl)c(C)n1-c1ccon1", "Potency": "inactive"},
      {"compound": "OCCN1CCN(c2cc(-c3ccccc3)c3ccccc3n2)CC1", "Potency": "active: 79.4 µM"},
      {"compound": "CCc1n[nH]c(=S)n1/N=C/c1cccc2ccccc12", "Potency": "inactive"},
      {"compound": "O=C1NC(=S)S/C1=C\\c1ccc(SCc2ccco2)o1", "Potency": "active: 8.91 µM"},
      {"compound": "COc1cc(SC)ccc1C(=O)OC(C)C(=O)NC1CCCC1", "note": "(stereo unspecified)", "Potency": "inconclusive: 89.1 µM [inhibitor, partial curve]"},
      {"compound": "COc1cc2c(cc1OC)-c1cc(Nc3ccc4c(c3)OCCO4)nc(=O)n1CC2", "Potency": "inconclusive: 31.6 µM [inhibitor, full curve]"},
      {"compound": "COC(=O)Cc1cc(C)cc2c(=O)cc(-c3ccoc3)oc12", "Potency": "inconclusive: 79.4 µM [inhibitor, single point]"},
      {"compound": "CCC1(OC(=O)CN(C)C)C(=O)OCc2c1cc1n(c2=O)Cc2cc3c(N)cccc3nc2-1", "note": "(stereo unspecified)", "Potency": "inconclusive: 44.7 µM [inhibitor, partial curve]"},
      {"compound": "COC(=O)c1ccc(NC(=O)c2nc(S(=O)(=O)Cc3cccc(C)c3)ncc2Cl)cc1", "Potency": "inconclusive: 12.6 µM [inhibitor, full curve, poor fit]"},
      {"compound": "CC1(C)OC(=O)C(=Cc2ccc(-c3ccc(S(N)(=O)=O)cc3)o2)C(=O)O1", "Potency": "inconclusive: 11.9 µM [inhibitor, partial curve]"},
      {"compound": "CC(C)n1c(=S)[nH]c2c1c(=O)[nH]c(=O)n2C", "Potency": "active: 89.1 µM"},
      {"compound": "CCc1nnc(NS(=O)(=O)c2ccc(NC(=S)NC(=O)c3ccc(Br)cc3)cc2)s1", "Potency": "inconclusive: 79.4 µM [inhibitor, partial curve]"},
      {"compound": "O=C(C=Cc1ccc2c(c1)OCO2)OCC=Cc1ccc2c(c1)OCO2", "Potency": "inactive"},
      {"compound": "Cc1ccc(/C=C2\\C(=N)N3N=C(CC(=O)N4CCCCC4)SC3=NC2=O)cc1", "activity change, negative = inhibition": "inactive: -2.15% [at 11.6 µM]"},
      {"compound": "Cc1cccc(C(=O)OCC(=O)Nc2sc3c(c2C#N)CCC3)c1", "Potency": "inconclusive: 11.2 µM [inhibitor, partial curve]"},
      {"compound": "NS(=O)(=O)c1ccc(Nc2ccccc2)c([N+](=O)[O-])c1", "Potency": "inactive"},
      {"compound": "S=C(NC1CCCCC1)c1ccc2c(c1)OCO2", "Potency": "inactive"},
      {"compound": "N#Cc1c(NC(=O)/C=C/C(=O)O)sc2c1CCN(Cc1ccccc1)C2", "activity change, negative = inhibition": "inactive: -8.27% [at 11.6 µM]"},
      {"compound": "O=C(Nc1ccc(C(F)(F)F)cc1)C1CC(=O)N(c2ccc3c(c2)OCCO3)C1", "note": "(stereo unspecified)", "Potency": "inconclusive: 56.2 µM [inhibitor, partial curve]"},
      {"compound": "C#CCn1cc(/C=N/NC(=O)COc2cccc3cccnc23)c2ccccc21", "Potency": "inconclusive: 35.5 µM [inhibitor, partial curve]"},
      {"compound": "O=C(Nc1ccccc1)OCCOc1cccc(Br)c1", "Potency": "inactive"},
      {"compound": "Oc1ccc(-c2csc(-c3cccnc3)n2)cc1O", "Potency": "inconclusive: 15 µM [inhibitor, partial curve]"}
    ]}
  ]
}
